Measurements published in PMC7939464.
Results are given in words; binding and its absence hold for the method and conditions named. Binding seen in cells or lysates may run through a third protein. Some results given as binding are weak or reduced against the parent protein; the word gives no strength.

Chains of the proteins cited; added tags and fusions are not shown.
UniProt Q96PU5: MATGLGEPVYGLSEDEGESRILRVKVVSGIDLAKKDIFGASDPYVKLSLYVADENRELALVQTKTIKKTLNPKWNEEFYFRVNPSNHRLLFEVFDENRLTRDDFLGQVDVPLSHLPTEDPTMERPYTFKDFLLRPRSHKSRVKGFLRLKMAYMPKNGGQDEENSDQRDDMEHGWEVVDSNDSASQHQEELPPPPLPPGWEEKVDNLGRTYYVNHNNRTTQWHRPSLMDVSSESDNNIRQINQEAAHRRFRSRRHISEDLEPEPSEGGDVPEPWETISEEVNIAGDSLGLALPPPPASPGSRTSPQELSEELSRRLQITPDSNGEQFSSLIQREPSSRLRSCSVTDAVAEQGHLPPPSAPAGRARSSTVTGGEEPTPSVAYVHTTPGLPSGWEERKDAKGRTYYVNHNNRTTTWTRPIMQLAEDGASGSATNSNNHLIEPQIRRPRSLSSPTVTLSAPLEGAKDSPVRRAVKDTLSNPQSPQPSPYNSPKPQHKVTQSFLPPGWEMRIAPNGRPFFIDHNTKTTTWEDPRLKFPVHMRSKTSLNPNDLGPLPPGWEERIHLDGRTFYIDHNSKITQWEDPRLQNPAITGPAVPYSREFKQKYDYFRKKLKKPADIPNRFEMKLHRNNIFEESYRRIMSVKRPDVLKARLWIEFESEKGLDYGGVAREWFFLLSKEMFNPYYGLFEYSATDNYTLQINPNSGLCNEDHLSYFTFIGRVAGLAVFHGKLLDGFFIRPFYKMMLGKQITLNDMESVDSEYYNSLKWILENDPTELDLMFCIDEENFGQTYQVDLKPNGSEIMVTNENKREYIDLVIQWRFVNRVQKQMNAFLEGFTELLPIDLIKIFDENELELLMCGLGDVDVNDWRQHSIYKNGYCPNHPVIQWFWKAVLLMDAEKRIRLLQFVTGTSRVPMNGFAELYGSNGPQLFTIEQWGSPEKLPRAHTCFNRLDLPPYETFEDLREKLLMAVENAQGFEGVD
UniProt Q99732: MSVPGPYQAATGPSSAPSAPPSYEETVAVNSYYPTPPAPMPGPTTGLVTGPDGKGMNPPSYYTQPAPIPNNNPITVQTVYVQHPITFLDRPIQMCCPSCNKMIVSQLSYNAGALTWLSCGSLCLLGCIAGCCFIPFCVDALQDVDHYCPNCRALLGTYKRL

Assays:
[1] = target: V5-tagged Nav1.5 (voltage-gated sodium channel) (UniProt Q14524); experiment: co-IP; V5 antiserum IP of extracts of HEK cells stably expressing V5-tagged Nav1.5, transfected with HA-tagged LITAF or empty vector; Western blot (n = 3)
[2] = target: FLAG-tagged NEDD4-2 (neural precursor cell-expressed developmentally down-regulated 4 type 2) (UniProt Q96PU5); experiment: co-IP; FLAG antibody IP of total lysates of stable HEK cells transiently expressing HA-tagged LITAF and FLAG-tagged NEDD4-2, or FLAG-tagged NEDD4-2 alone, 48 h; Western blot (n = 3)

**Q.** How did the binding [1] turn out when “HA-tagged LITAF (lipopolysaccharide-induced tumor necrosis factor-alpha factor) (from UniProt Q99732 1-161)” was run?
**A.** binds

**Q.** And the binding [2]?
**A.** binds
